Some entries share one result that the patent states for a list of compounds.
System: Bcl-2
Settings: all tested cell lines or MEF

SMILES	time at which decrease in Bcl-2 level is observed [h]
CN[C@@H]1C[C@H]2O[C@@](C)([C@@H]1OC)n1c3ccccc3c3c4c(c5c6ccccc6n2c5c31)C(=O)NC4 [STS, staurosporine]	1 to 2
COc1cc([C@@H]2c3cc4c(cc3[C@@H](O[C@@H]3O[C@@H]5CO[C@@H](C)O[C@H]5[C@H](O)[C@H]3O)[C@H]3COC(=O)[C@H]23)OCO4)cc(OC)c1O [Etoposide]	1 to 2

From patent US11230579B2, “Method of treating BCL-2 over-expressing disorders using arts containing a BH3-like domain” (CARMEL-HAIFA UNIVERSITY ECONOMIC CORPORATION LTD., priority 2012, dated 2022)
